Source: PMC5902613
These are yes or no findings as the source states them, for the method shown. In cells and extracts the contact can be indirect. A yes stands for co-enrichment or nearness to the bait. Other partners may have been found.

Sequences of proteins named here, by UniProt entry; tags and fusion partners are left off.
UniProt P31269: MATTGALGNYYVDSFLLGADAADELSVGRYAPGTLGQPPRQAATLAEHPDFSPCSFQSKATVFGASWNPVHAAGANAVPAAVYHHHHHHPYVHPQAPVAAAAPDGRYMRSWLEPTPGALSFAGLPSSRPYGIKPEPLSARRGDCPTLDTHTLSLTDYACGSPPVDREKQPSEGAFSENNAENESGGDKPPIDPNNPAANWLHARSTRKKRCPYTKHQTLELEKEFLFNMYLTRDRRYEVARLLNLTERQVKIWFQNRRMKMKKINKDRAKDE

Target: Homeobox A9 (HOXA9) (human (endogenous in the paper's human cell lines)) (UniProt P31269)
Experiment: affinity purification with mass spectrometry; immunoprecipitation from cell lysate with a HOXA9 antibody or non-specific IgG control; 20 ug of precipitated protein mix separated by SDS-PAGE, in-gel tryptic digestion, Orbitrap Fusion LC-MS/MS

B1: CRIP2 (protein, UniProt P52943 1-208)
chain: MASKCPKCDKTVYFAEKVSSLGKDWHKFCLKCERCSKTLTPGGHAEHDGKPFCHKPCYATLFGPKGVNIGGAGSYIYEKPLAEGPQVTGPIEVPAARAEERKASGPPKGPSRASSVTTFTGEPNTCPRCSKKVYFAEKVTSLGKDWHRPCLRCERCGKTLTPGGHAEHDGQPYCHKPCYGILFGPKGVNTGAVGSYIYDRDPEGKVQP
binding: binds
